The filed quantity is “Percent Effect” (%).
How 0% and 100% were set is not recorded. Most values in the screen are low, and negative values occur.
Compounds were drawn at random from those tested, without regard to their results.
Two or more numbers in one place are separate tests of the same structure; such repeats can differ widely.
A dash means the value is not listed here; it may have been measured.

T. brucei: 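Whole-parasite assay of Trypanosoma brucei over 72 hours; the read-out is not stated. Tested at 30 µM. Direction is inferred from retests: higher values go with stronger inhibition. Values scatter widely below zero; nearly all retest evidence comes from the higher of the two concentrations used. About 64,000 compounds were tested under these conditions; 1.5% (about 940) showed 50% or more at least once.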
Leishmania in macrophages: 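Cell assay of Leishmania donovani living inside macrophages; the read-out is not stated. Concentration: 30 µM. Higher reads as stronger inhibition (inferred: compounds with an IC50 in retests scored well above the rest). About 69,000 compounds were tested under these conditions; 1.5% (about 1,000) showed 50% or more at least once.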

structure	T. brucei	Leishmania in macrophages
Nc1nccc(N2C[C@@H](CN3CCCCC3)[C@@H](CO)C2)n1	2.294%	6.989%
NC(=O)c1ccc(NC(=O)c2ccncc2F)cn1	-5.555%	52.29%
COCC[C@]1(O)CCN(CC(=O)NCc2ccccn2)C[C@H]1C	-79.92%	16.19%
O=C1CCC(=O)N1c1nn(Cc2cccc(F)c2)cc1Cl	-7.543%	-1.051%
O=C(O)C(F)(F)F.[H][C@@]12COC[C@]1(C(=O)NCc1cccs1)CN(c1ncccn1)C2	-6.772%	27.92%
O=C(O)C(F)(F)F.[H][C@]12CCN(S(=O)(=O)c3ccccc3F)C[C@@]1([H])OCCN(C)C2	-	41.02%
COCCCNS(=O)(=O)c1cccc(CSC)c1	-	-40.83%
Cc1ccncc1NC(=O)C1CSc2ncc(C)c(=O)n2C1 (centres unmarked)	-12.91%	20.81% & -19.5%
O=C(O)C1(n2cccn2)CCN(Cc2nc(-c3ccccc3)no2)CC1	-15.37%	3.473%
Cc1cccnc1CNC(=O)N(CCCO)C1CCc2ccccc21 (centres unmarked)	15.45%	-4.22%
Cc1ncc2c(c1CNC(=O)C1(C)CCCCO1)CCNC2 (centres unmarked)	5.253%	6.279%
Cc1nccn1CCC1CCCCN1Cc1ccncc1 (centres unmarked)	-7.187%	14.55%
O=C(NCc1cc2ccccc2s1)c1cc(CN2CCCC(O)C2)on1 (centres unmarked)	-44.11%	-21.61%
O=C(O)C(F)(F)F.[H][C@@]12CN(C(=O)C3CCOC3)C[C@]1([H])C(=O)N(CCN(C)C)C2 (some centres unmarked)	-47.88%	-26.31%
COc1ccccc1OC1CN(C(=O)Cc2c(C)nc(N)nc2C)C1	0.07691%	8.695%
[H][C@]12CN(Cc3ccccn3)CCN1C[C@@H](c1ccccc1)[C@@H]2C(=O)NC	-30.71%	-9.352%
COc1ccc(-c2cc(N)ccn2)c(OC)c1OC	-61.81%	23.16%
COc1ccc2c(c1)OCC(Cc1cnccc1N)C2 (centres unmarked)	-23.53%	-11.14%
CS(=O)(=O)N[C@@H]1CCN(Cc2cccnc2)[C@H]1Cc1ccccc1.O=C(O)C(F)(F)F.O=C(O)C(F)(F)F	-19.16%	23.65%
O=C(NC1CCN(CC2CC2)C1)c1ccc(N2CCC(O)CC2)cc1 (centres unmarked)	-1.141%	-2.335%
Cc1cc(CCC(=O)Nc2nncs2)nc(C2CCCN2)n1.Cl (centres unmarked)	-23.6%	-30.54%
CCC(O)c1nc2c([nH]1)CC(C)(C)CNC2=O (centres unmarked)	-45.56%	4.98%
CC1(C)CC(=O)N(CC(=O)Nc2ccon2)c2ccccc21	-4.611%	36.78%
Cc1ccc(C(=O)N2CCCC(n3cncn3)C2)o1 (centres unmarked)	-	-0.04244%
O=C(O)C(F)(F)F.[H][C@@]12CCN(C3CCOCC3)C[C@@]1([H])O[C@H](C(=O)N1CCOCC1)C2	-36.24%	7.917%
Cl.NCCc1cn(Cc2ccccn2)c2ccccc12	-12.16%	20.56%
Cc1cc(NC(=O)Cn2ncc(SCC(N)=O)c(Cl)c2=O)ccc1Br	-12.56%	13.9% & 29.29%
O=C(c1ccoc1)N1CCCn2nnc(COCC3CC3)c2C1	-23.12%	-7.495%
OC[C@H]1CN(Cc2c(Cl)cncc2Cl)C[C@H]1CN1CCOCC1	-132.2%	26.95%
CCc1csc(CNC2CCN(Cc3ccccc3)C2)n1 (centres unmarked)	-9.701%	28.21%
Cc1cc(CN2CCOC(C)(C(=O)N3CCOCC3)C2)no1 (centres unmarked)	-16.66%	-15.79%
Cc1ccc2c(c1)C(=O)CC1(CCN(Cc3ccccc3)CC1)O2	10.94%	28.96%
Cc1nn(C)c(N(C)C)c1CNCc1ccc(C(=O)N(C)C)cc1	-	13.36%
CC(C)C(Sc1nnnn1C1CC1)C(=O)NCc1cccnc1 (centres unmarked)	5.767%	-7.362%
Cc1cc(NC(N)=O)ccc1OCC(F)(F)F	-6.624%	3.958%
CCN(Cc1cnn(C)c1)C[C@H]1CC[C@@H](Cc2ccc(C)nc2)O1	-17.43%	19.83%
Cc1nn(C)c2cn(CC(=O)NC3CCSCC3)nc12	-	-20.93%
CCC(O)CN1CCN(C(=O)c2sccc2OC)CC1 (centres unmarked)	10.15%	19.62%
CC(C)Nc1nc(N2CCCC2)nc2c1CCN(S(C)(=O)=O)CC2.O=C(O)C(F)(F)F.O=C(O)C(F)(F)F	-7.363%	36.6%
COc1c(C)cnc(CN2CCCC(Cn3nc(C)nc3C)C2)c1C (centres unmarked)	-	22.78%
O=C(O)C(F)(F)F.O=C(O)C(F)(F)F.[H][C@@]12COC[C@]1([H])[C@@H](OCc1csc(C)n1)CN2Cc1cccc(C)n1	-22.13%	1.111%
COCCN1Cc2ccccc2C2(CCN(C(=O)c3ccno3)CC2)C1	-14.34%	10.34%
Cc1nnc(SCCC(=O)N(C)Cc2ccc(Cl)s2)[nH]1	-6.485%	1.358%
[H][C@]12CCCCN1CCC[C@@]2(O)CN(C)Cc1nc(CC(C)C)no1	-	19.57%
CC(C)Oc1ncnc2c1CCN(Cc1ccoc1)CC2.O=C(O)C(F)(F)F	-6.979%	7.402%
O=C(O)C(F)(F)F.[H][C@@]12COC[C@H](C(=O)N3CCCCO3)[C@]1([H])CN(Cc1ccc(C)o1)C2	25.51%	-1.076%
CC(NC(=O)CCn1cccn1)c1cn(-c2ccccc2)nn1 (centres unmarked)	-18.34%	16.56%
CC(C)NC(=O)CN1CCN(CC2CCOc3ccccc3C2)CC1 (centres unmarked)	-25.79%	-24.61%
Cc1ncc(CNC(=O)c2nn(C)c3c2CS(=O)(=O)CC3)s1	41.55%	17.47%
CS(=O)(=O)Cc1ccc(OCc2ccc(F)cc2)cc1	-33.3%	-27.84%
CC(C)Cc1noc(CN2CCN(CCOc3ccc(Cl)cc3)CC2)n1	7.616%	39.79%
Cc1nc(CNCC2CN(C)CCO2)cs1 (centres unmarked)	3.844%	33.12%
COc1ccc(-c2nc(CCNc3nnc(C)c(C)c3C#N)co2)cc1	-13.45%	3.216%
CCc1ccc(C(=O)O)cc1S(=O)(=O)Nc1ccc(=O)n(C)c1	-25.45%	27.66%
Cc1nc2cc(O)nn2c(C)c1CCC(=O)N(C)Cc1ccccc1	-34.04%	20.29%
COc1ccc(-c2c[nH]c([C@@H]3COCCN3)n2)cc1	-38.08%	-11.87%
CCc1noc(CN(CC)C(=O)CC2C(=O)NCCN2CC=C(C)C)n1 (centres unmarked)	5.035%	37.63%
O[C@H]1CN(Cc2ccnc(N3CCCC3)n2)CC[C@@]12CCCO2	-	-18.26%
CC(C)CC(C)NC1CCN(c2cccc(-c3cscn3)c2)CC1 (centres unmarked)	-3.57%	17.78%
CCC(CC)C(=O)Nc1ccc2oc(=O)n(CCN(C)C)c2c1	-28.31%	2.72%
CC(C(=O)N1CCCC1)S(=O)(=O)Cc1nc(C(C)(C)C)no1 (centres unmarked)	-22.69%	21.47%
[H][C@@]12CCCN1C[C@H](CCSC)N(Cc1cnn(CC)c1C)C2	15.89%	10.02%
CN(C)C(=O)CCNC(=O)c1cnc(-c2ccccc2)nc1	12.01%	4.545%
Cc1nc(CN2CCC(C(=O)O)(n3ccc(-c4ccco4)n3)CC2)co1	-48.79%	-3.303%

Data taken from ChEMBL document CHEMBL3988442, “University of Dundee, Small-Polar-MMV Screening Library” (2021).